Experimental data taken from paper PMC5979003.
Results are given in words; binding and its absence hold for the method and conditions named. Binding seen in cells or lysates may run through a third protein. Some binding calls cover weakened binding; strength is not graded here.

Protein sequences, listed by entry. Tags and fused reporters are not part of them.
UniProt P09874: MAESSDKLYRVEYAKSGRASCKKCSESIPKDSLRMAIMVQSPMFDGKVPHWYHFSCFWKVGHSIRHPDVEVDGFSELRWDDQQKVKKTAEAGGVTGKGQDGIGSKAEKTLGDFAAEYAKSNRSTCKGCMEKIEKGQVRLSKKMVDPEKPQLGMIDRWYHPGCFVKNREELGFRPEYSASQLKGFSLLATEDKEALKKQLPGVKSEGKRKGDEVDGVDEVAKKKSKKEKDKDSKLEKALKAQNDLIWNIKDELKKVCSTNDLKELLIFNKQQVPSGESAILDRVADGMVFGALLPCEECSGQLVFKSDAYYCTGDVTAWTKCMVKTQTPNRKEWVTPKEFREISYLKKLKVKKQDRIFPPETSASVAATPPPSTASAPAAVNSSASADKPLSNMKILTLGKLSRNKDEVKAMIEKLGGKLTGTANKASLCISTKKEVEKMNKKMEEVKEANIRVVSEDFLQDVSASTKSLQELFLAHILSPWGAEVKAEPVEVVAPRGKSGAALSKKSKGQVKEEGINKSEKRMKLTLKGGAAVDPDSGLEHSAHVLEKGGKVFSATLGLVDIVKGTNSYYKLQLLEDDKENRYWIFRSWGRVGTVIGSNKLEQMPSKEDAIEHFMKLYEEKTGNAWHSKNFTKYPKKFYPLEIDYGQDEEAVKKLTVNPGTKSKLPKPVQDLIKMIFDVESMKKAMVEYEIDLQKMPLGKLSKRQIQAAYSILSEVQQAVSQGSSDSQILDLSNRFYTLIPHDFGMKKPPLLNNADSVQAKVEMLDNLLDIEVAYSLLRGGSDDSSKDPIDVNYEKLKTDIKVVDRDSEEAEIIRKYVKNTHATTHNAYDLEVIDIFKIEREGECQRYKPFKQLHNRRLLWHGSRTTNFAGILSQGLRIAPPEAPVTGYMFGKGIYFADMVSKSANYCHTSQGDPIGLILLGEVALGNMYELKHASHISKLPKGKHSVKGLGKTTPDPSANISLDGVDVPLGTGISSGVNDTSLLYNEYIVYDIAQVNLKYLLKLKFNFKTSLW
UniProt P54098: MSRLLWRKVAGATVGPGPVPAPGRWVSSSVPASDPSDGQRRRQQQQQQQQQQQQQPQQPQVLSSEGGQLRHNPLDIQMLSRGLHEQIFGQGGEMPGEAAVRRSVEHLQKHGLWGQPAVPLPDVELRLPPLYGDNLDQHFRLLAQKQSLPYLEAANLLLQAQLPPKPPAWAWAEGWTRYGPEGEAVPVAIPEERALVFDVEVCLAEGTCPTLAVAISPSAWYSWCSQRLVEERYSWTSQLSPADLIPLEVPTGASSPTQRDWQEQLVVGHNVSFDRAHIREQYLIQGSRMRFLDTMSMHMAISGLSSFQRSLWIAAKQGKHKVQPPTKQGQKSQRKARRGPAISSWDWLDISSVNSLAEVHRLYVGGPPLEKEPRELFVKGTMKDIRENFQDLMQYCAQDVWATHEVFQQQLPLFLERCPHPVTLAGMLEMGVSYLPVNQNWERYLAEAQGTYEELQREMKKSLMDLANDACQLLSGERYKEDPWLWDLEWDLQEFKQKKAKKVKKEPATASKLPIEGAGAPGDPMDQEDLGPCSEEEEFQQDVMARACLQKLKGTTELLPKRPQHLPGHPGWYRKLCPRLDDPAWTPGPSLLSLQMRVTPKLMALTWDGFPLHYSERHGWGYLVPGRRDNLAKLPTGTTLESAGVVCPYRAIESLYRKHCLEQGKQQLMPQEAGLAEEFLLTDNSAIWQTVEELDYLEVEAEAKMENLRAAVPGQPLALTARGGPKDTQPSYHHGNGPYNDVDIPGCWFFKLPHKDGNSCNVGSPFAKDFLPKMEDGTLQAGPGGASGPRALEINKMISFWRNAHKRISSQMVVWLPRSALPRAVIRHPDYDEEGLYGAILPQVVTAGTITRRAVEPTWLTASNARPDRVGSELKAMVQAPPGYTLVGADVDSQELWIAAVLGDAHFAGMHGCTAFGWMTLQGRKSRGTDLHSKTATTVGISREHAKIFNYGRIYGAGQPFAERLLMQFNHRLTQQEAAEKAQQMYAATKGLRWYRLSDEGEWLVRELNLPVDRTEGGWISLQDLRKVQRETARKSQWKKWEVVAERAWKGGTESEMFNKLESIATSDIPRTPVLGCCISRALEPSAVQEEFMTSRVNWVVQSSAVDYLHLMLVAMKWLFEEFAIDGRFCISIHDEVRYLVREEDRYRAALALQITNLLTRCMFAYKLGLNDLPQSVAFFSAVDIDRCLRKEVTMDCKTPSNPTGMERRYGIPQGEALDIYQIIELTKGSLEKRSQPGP
UniProt P11103: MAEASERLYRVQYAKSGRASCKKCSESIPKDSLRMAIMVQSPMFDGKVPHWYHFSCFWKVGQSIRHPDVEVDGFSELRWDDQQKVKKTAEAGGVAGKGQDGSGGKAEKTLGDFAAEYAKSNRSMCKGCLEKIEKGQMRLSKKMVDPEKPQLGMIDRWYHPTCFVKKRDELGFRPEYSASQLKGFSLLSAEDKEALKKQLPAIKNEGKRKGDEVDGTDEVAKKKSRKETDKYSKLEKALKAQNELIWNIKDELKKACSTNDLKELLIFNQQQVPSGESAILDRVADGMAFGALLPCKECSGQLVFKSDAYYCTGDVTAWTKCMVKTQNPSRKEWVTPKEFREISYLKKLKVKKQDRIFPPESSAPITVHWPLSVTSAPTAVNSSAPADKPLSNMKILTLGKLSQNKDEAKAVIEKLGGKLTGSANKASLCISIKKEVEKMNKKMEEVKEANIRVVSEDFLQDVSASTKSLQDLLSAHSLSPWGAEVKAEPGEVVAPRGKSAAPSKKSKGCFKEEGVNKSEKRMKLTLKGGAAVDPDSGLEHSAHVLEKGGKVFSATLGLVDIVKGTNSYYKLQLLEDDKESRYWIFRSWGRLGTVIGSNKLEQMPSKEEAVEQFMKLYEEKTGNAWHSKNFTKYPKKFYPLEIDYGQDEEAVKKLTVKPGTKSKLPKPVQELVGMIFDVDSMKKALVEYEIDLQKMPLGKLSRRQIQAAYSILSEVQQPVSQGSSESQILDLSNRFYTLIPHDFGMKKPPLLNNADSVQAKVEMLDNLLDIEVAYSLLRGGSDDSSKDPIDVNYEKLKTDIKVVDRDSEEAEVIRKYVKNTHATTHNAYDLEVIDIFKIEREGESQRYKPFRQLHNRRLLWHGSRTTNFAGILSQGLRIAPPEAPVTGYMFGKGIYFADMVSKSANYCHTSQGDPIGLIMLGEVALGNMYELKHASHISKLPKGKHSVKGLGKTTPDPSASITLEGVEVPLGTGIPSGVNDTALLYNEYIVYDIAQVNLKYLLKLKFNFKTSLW

What was measured:
[1] = molecular target: Poly(ADP-ribose) polymerase 1 (PARP1), human (human (endogenous in HeLa)) (UniProt P09874); experiment: co-IP; HeLa cells infected with T. cruzi (1:5, 24 h), uninfected or treated with 50 μM H2O2; cross-IP/Western blot with antibodies against POLG and PARP1
[2] = molecular target: DNA polymerase γ catalytic subunit (POLG), human (human (endogenous in HeLa)) (UniProt P54098); experiment: as above
[3] = molecular target: T1, DNA polymerase γ catalytic subunit (POLG), mouse (mouse (endogenous in heart)) (UniProt P54099); experiment: co-IP; pooled cardiac mitochondria of normal and chronically T. cruzi infected (chagasic) WT mice; immunoprecipitation with anti-POLG antibody (20 μg, overnight, 4°C), Protein G agarose columns, elution in 0.2 M glycine pH 2.5; input, flow-through and POLG-binding fractions blotted for PARP1, Twinkle, SSBP1
T1 sequence: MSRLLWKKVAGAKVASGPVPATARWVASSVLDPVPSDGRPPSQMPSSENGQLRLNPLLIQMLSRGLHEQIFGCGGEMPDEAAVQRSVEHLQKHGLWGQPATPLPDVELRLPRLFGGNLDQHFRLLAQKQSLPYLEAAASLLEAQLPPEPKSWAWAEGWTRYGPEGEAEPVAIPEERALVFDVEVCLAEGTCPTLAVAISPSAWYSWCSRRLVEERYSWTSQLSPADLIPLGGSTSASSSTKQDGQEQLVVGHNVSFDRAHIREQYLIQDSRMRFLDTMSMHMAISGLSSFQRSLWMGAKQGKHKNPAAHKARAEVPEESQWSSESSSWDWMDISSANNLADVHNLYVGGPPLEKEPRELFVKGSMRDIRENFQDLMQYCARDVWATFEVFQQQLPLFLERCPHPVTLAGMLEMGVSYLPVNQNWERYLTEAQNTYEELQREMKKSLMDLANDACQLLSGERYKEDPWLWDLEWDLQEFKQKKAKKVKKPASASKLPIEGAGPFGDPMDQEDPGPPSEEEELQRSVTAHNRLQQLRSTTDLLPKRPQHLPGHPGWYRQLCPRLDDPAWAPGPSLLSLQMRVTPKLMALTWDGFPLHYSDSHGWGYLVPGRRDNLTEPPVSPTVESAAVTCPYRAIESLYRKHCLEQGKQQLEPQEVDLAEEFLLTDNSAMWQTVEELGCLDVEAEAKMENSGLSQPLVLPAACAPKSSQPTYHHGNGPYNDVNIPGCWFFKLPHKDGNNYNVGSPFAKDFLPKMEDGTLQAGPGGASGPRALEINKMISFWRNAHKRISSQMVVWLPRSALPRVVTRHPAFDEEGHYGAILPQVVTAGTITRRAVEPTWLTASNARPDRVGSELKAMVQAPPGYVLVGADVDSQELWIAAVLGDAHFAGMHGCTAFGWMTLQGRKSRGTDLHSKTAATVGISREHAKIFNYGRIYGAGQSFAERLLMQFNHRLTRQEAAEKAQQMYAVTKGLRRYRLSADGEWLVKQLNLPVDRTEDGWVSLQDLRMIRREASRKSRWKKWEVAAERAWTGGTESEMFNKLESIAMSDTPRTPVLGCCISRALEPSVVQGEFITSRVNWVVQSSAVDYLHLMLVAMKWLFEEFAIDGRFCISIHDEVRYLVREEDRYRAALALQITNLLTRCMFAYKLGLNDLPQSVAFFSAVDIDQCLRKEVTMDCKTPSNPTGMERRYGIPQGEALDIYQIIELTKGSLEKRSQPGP

DNA polymerase γ catalytic subunit (POLG), human (from UniProt P54098 1-1239)
binding [1]: binds

Poly(ADP-ribose) polymerase 1 (PARP1), human (from UniProt P09874 1-1014)
binding [2]: binds

Poly(ADP-ribose) polymerase 1 (PARP1), mouse (from UniProt P11103 1-1013)
binding [3]: binds
